# Assay results taken from patent US20130058962A1 (published 2013).
# The chains behind the UniProt entries cited, without tags or fusion partners. Residues count along the entry.
# UniProt P0DPI1, residues 2-448: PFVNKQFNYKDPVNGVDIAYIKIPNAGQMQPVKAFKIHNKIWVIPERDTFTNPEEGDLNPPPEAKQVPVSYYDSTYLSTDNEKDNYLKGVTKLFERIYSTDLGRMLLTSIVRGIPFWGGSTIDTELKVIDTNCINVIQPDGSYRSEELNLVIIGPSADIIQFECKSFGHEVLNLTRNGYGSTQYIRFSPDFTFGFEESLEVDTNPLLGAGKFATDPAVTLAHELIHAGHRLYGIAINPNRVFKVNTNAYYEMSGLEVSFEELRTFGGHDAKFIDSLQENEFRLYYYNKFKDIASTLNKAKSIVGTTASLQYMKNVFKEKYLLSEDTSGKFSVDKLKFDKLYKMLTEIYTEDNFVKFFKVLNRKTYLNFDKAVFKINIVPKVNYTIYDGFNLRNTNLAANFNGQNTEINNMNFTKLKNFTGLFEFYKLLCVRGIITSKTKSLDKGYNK
# These are yes or no findings as the source states them, for the method shown. Some results given as binding are weak or reduced against the parent protein; the word gives no strength.
# Molecular target: purified recombinant BoNT/A light chain (Clostridium botulinum) (UniProt P0DPI1)
# Test: ELISA on BoNT subunits / Western blot of reduced holotoxin
binder,measurement,value
ciA-D12 (VHH) VHH: QVQLVESGGGLVQPGGSLRLSCVVSGSDFNTYIMGWYRQVPGKPRELVADITTEGKTNYGGSVKGRFTISRDNAKNTVYLQMFGLKPEDAGNYVCNADWKMGAWTAGDYGIDYWGKGTLVTVSS,binding,binds
